The other results are listed elsewhere or left out. Most entries show no effect beyond the scatter of the controls.
Compound: CN[C@@H]1C[C@H]2O[C@@](C)([C@@H]1OC)n1c3ccccc3c3c4c(c5c6ccccc6n2c5c31)C(=O)NC4 [staurosporine]
Experiment: log2 fold change of pooled soluble protein (PISA), ligand vs vehicle (log2 ratio); higher = more thermally stabilized
Details: ligand concentration: 20 uM; assay format: PISA pool 52.9/55.5/58.6 C

Sequences of proteins named here, by UniProt entry; tags and fusion partners are left off. A change or cut given only in a name is not applied to a line headed by its entry.
UniProt Q8C0E2, whole entry: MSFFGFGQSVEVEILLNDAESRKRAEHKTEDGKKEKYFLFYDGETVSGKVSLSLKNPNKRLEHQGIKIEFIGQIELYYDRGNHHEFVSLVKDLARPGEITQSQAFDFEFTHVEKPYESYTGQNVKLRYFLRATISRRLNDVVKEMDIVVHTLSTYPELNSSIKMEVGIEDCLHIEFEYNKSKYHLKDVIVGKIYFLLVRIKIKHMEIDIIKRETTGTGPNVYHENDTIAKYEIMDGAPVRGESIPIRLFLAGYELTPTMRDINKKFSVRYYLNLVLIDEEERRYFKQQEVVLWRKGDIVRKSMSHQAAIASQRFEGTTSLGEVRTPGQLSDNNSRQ
UniProt Q8CBC4: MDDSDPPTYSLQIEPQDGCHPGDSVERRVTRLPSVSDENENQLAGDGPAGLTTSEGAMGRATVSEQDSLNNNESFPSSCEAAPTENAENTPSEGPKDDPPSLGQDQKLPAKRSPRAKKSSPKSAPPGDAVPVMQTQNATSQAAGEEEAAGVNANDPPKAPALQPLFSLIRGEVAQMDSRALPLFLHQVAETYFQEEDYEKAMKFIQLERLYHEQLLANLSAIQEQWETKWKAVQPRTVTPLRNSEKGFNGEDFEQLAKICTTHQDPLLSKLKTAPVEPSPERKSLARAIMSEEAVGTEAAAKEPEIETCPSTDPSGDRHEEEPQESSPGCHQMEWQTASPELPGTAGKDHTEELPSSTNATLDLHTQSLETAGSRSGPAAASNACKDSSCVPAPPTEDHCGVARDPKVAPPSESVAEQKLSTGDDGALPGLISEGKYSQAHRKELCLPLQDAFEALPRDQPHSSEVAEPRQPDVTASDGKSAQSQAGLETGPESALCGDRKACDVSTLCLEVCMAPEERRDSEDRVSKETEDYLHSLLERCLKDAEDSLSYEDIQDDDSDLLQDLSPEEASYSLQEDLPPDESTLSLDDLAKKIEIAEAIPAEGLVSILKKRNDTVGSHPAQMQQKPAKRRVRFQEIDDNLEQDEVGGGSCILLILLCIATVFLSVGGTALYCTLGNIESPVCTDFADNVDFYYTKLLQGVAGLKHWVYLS
UniProt Q8C525: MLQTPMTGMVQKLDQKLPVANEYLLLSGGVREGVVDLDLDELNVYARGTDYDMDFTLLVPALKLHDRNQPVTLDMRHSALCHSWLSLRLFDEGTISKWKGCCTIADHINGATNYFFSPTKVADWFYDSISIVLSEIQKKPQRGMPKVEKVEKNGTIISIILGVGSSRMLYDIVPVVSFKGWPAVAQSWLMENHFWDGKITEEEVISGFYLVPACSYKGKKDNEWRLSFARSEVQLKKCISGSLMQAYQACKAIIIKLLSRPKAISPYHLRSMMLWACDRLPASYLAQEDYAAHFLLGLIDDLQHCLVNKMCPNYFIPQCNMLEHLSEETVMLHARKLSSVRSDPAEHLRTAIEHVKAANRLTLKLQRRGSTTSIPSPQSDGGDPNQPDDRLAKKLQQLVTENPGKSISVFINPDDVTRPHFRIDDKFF
UniProt Q8BMD8: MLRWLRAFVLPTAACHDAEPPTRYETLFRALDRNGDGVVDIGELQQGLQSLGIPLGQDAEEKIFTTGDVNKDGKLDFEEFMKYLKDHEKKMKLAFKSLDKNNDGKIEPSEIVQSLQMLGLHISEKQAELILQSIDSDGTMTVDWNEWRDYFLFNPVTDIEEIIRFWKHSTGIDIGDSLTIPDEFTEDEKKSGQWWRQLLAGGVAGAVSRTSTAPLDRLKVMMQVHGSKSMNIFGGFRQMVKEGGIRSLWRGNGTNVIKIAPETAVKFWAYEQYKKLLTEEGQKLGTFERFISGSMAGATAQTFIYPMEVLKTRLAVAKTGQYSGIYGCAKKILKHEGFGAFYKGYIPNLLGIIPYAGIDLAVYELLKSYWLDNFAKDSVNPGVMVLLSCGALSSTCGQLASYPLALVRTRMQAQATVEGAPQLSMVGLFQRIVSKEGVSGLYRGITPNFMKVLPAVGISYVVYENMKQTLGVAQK
UniProt Q8BH50: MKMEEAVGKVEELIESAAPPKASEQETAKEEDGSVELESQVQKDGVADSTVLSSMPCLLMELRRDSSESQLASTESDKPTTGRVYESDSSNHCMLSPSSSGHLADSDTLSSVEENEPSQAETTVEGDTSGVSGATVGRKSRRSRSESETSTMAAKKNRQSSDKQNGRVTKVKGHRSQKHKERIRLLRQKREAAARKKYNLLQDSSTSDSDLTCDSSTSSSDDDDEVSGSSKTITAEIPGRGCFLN
UniProt Q8BRT1: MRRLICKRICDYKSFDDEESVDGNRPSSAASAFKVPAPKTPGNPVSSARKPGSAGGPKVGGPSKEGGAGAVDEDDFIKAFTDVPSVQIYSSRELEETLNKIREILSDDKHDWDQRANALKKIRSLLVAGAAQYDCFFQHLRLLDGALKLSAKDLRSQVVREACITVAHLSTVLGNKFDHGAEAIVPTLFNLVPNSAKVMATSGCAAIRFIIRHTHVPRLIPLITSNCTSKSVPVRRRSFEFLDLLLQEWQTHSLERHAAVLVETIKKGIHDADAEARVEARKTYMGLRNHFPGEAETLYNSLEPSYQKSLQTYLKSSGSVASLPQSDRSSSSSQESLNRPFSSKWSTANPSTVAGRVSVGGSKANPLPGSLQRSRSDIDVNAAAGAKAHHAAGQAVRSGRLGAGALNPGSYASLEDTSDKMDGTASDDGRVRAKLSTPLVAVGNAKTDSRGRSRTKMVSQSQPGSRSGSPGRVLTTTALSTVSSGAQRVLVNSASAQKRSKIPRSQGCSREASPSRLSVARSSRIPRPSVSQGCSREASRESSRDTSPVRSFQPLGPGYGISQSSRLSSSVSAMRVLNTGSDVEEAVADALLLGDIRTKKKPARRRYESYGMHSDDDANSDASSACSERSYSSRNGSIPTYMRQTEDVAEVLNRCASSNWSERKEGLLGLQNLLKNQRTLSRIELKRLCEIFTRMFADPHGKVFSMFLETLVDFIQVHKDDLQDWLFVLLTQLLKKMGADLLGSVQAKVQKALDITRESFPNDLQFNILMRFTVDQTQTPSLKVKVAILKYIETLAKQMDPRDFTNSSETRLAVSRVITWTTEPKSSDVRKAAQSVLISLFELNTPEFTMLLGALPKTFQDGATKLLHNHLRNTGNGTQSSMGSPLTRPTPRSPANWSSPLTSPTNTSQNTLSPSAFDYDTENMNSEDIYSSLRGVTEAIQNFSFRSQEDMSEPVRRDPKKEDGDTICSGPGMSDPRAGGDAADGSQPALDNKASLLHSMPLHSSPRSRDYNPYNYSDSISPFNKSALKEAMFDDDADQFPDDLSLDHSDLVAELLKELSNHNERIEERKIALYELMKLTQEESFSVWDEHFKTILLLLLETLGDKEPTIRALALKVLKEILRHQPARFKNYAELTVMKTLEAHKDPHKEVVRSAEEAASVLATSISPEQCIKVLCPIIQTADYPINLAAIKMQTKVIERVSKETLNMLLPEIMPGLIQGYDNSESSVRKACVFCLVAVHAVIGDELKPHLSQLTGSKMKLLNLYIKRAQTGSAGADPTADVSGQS
UniProt Q8C180: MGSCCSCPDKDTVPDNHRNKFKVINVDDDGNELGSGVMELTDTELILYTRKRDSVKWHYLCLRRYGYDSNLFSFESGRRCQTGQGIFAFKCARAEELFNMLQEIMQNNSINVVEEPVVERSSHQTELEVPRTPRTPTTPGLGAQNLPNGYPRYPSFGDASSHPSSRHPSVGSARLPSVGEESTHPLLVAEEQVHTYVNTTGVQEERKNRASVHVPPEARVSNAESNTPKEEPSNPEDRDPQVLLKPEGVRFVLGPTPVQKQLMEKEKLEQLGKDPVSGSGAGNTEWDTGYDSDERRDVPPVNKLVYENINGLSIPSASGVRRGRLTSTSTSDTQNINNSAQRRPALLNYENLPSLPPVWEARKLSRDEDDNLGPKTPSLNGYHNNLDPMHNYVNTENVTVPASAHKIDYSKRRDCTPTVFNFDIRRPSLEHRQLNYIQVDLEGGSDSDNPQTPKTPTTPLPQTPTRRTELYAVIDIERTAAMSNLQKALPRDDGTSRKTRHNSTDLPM
UniProt Q8C0M9: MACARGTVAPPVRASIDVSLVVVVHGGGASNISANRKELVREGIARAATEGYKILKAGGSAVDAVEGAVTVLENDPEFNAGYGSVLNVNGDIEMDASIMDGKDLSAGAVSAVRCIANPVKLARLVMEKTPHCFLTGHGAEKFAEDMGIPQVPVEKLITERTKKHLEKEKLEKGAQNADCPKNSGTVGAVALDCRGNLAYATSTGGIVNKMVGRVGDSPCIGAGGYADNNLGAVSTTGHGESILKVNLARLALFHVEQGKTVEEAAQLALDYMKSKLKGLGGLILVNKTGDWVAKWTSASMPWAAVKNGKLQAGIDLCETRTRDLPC
UniProt Q8BUV3: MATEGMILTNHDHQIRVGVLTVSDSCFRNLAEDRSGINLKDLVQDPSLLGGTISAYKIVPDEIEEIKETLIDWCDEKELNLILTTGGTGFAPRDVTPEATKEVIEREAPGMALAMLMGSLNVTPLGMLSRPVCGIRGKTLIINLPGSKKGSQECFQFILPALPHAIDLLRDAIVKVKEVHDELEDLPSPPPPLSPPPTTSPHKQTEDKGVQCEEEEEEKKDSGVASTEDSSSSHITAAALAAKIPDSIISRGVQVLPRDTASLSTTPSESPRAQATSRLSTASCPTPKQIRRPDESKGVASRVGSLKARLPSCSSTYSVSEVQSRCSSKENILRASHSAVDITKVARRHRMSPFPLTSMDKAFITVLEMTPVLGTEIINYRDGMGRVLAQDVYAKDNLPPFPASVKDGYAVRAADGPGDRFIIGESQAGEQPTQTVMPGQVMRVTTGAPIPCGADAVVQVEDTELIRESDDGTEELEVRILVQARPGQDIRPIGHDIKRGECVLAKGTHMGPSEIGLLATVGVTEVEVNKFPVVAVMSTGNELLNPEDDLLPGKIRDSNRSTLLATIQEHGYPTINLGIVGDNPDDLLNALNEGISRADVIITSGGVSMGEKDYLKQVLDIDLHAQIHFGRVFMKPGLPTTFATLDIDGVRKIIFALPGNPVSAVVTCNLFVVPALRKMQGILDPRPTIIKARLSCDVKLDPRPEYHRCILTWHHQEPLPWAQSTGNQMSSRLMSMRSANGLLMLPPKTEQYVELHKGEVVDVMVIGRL
UniProt Q8BZ47: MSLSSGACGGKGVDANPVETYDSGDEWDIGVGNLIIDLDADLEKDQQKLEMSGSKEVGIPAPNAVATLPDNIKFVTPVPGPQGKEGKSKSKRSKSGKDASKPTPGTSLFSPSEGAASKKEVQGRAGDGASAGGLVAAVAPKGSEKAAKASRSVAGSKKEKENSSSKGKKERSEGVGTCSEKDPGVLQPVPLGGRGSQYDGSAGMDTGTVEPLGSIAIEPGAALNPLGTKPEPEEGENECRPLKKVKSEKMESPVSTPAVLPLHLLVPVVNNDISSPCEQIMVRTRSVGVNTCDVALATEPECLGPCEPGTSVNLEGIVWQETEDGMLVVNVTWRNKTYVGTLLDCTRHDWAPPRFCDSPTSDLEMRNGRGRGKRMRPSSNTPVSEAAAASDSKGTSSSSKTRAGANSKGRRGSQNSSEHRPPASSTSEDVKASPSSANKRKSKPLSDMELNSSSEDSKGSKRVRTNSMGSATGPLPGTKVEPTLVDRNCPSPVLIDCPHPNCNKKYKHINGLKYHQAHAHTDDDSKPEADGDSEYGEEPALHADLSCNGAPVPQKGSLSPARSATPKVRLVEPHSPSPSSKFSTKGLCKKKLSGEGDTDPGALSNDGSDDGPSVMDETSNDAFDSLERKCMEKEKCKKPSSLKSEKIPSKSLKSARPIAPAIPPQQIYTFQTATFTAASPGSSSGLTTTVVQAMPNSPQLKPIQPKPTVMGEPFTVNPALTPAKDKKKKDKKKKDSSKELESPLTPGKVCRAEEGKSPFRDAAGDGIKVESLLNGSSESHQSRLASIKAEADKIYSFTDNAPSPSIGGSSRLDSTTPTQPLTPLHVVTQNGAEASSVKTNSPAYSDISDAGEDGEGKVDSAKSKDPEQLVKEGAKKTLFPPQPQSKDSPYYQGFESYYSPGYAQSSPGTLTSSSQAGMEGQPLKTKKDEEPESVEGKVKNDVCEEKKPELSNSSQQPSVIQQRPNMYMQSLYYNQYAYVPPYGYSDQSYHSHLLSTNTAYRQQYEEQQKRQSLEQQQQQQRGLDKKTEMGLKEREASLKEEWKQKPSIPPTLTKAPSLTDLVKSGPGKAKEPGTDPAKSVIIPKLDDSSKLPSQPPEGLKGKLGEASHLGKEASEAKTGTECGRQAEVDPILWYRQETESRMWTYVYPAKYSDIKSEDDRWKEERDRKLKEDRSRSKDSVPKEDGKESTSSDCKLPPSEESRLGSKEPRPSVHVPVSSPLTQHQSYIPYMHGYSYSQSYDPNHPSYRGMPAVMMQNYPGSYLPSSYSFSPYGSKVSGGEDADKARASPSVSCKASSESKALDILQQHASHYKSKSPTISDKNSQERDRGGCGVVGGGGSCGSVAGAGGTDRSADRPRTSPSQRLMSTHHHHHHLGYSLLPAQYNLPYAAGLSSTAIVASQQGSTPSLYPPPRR

Target	log2 fold change of pooled soluble protein
UniProt Q8C0E2	0.0518
UniProt Q8BHG2	0.116
UniProt Q8BSF4	0.0398
UniProt Q8BU30	0.0145
UniProt Q8BGT5	0.0335
UniProt Q8CBY8	-0.00125
UniProt Q8BM72	-0.182
UniProt Q8BH58	0.136
UniProt Q8CBC4	0.0365
UniProt Q8BMB3	-0.00805
UniProt Q8C025	-0.144
UniProt Q8BI72	0.045
UniProt Q8C1M2	-0.0617
UniProt Q8C525	-0.00588
UniProt Q8BMF4	-0.0842
UniProt Q8BTX9	0.16
UniProt Q8BWT1	0.0436
UniProt Q8CDG3	-0.0353
UniProt Q8BH86	-0.0246

Another view of some results above.

| Target | log2 fold change of pooled soluble protein |
| --- | --- |
| UniProt Q8C0E2 | 0.0518 |
| UniProt Q8CDG3 | -0.0353 |

More records:

Target	log2 fold change of pooled soluble protein
UniProt Q8BHJ5	-0.0524
UniProt Q8C0D4	0.0872
UniProt Q8BMD8	-0.0897
UniProt Q8BM75	-0.325
UniProt Q8C4X7	0.156
Q8C7Q4;Q8VE92	-0.00992
UniProt Q8BKI2	0.0532
UniProt Q8BH50	-0.149
UniProt Q8BRT1	0.0465
UniProt Q8BH35	0.124
UniProt Q8C180	-0.21
UniProt Q8C0M9	0.0397
UniProt Q8BSM7	0.114
UniProt Q8BUV3	-0.0422
UniProt Q8BXB6	0.0128
UniProt Q8BZ47	-0.23
UniProt Q8BQ47	-0.0913
UniProt Q8BY89	-0.0361
